Results from PMC8962559.
Results are given in words; binding and its absence hold for the method and conditions named. For some of these results: Binding seen in cells or lysates may run through a third protein. Some results given as binding are weak or reduced against the parent protein; the word gives no strength.

By UniProt entry, the sequences of proteins in these tests, tags left out.
UniProt Q04206: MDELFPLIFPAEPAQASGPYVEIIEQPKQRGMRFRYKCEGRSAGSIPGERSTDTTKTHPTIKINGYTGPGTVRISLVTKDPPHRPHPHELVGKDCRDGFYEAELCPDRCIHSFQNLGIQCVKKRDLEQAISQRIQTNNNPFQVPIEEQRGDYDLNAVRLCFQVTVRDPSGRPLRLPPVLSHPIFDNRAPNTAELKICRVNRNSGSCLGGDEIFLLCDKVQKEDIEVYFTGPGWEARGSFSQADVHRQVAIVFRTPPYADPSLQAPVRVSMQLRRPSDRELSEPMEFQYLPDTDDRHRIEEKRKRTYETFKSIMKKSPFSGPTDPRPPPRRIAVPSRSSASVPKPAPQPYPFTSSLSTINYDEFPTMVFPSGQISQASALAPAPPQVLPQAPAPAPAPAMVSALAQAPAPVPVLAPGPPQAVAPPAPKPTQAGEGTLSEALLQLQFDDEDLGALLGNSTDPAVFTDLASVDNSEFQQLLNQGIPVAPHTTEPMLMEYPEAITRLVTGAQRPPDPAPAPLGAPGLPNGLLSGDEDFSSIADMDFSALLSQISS
UniProt Q9BRP0: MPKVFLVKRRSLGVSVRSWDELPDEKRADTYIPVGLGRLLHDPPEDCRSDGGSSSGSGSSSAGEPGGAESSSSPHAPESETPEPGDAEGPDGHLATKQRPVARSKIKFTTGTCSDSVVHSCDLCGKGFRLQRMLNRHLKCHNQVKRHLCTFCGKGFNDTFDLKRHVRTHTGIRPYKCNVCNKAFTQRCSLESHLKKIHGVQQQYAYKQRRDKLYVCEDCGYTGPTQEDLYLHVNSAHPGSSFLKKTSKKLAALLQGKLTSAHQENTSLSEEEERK

What was measured:
[1] = molecular target: endogenous P65 (human (endogenous in NCC-827 and SK-MES-1)) (UniProt Q04206); assay: co-IP; endogenous P300 and P65 in SK-MES-1 cells with or without OVOL2 overexpression
[2] = molecular target: GST-tagged full-length OVOL2 (UniProt Q9BRP0); assay: pull-down; in vitro pulldown of recombinant proteins: GST-tagged OVOL2 on glutathione-Sepharose beads, His-tagged P65; 4 °C, 3 h; wash 20 mM HEPES pH 7.9, 0.2 mM EDTA, 20% glycerol, 0.15 M KCl, 0.2% NP-40; both purified
[3] = molecular target: endogenous OVOL2 (human (endogenous in NCC-827)) (UniProt Q9BRP0); assay: co-IP; endogenous proteins, nuclear extracts from NCC-827 cells, immunoprecipitation with an anti-OVOL2 antibody
[4] = molecular target: FLAG-tagged full-length OVOL2 (UniProt Q9BRP0); assay: co-IP; HEK293T cells transfected with FLAG-tagged OVOL2 (full-length or deletion forms) and HA-tagged P65; lysis buffer 20 mM Tris-HCl pH 7.5, 150 mM NaCl, 1 mM EDTA, 1 mM EGTA, 1% Triton X-100; protein A/G beads, 4 °C

Substance: OVOL2 overexpressed in SK-MES-1 cells (from UniProt Q9BRP0 1-275)
- binding [1]: binds

Substance: His-tagged P65 (from UniProt Q04206 1-551)
- binding [2]: binds

Substance: endogenous P65 (from UniProt Q04206 1-551)
- binding [3]: binds

Substance: HA-tagged P65 (from UniProt Q04206 1-551)
- binding [4]: binds
